Laboratory results as given in PubChem BioAssay AID463199 (Broad Institute, 2010).
Whole data set: some 2,300 compounds, median “growth induction” near -24, cut for the highest 2% near 42. The list shows a part of the results. Potency and affinity values are given separately. The source made no clear call on entries shown without one.

Test: restored growth of temperature-sensitive Burl-1 yeast – whole organism, S. cerevisiae, Burl-1 ts mutant, luminescence, counter-screen for SUMOylation pathway inhibitor project, dose response (AID 463199)
Conditions: S. cerevisiae Burl-1 ts mutant growth, BacTiter-Glo, 38.5C 24 h; at 42 µM (top of the series)

Row | Structure (SMILES) | growth induction [%]
1 | CCOC(=O)c1ccc(CNC(=O)C2CCCCC2C(=O)OCC(F)(F)F)o1 (centres undefined) | 41.9
2 | N#Cc1c2ccc([N+](=O)[O-])cc2[n+]([O-])n1-c1ccccc1 | 13.5
3 | Cc1ccc(/C=C/C(=O)c2ccc([N+](=O)[O-])o2)cc1 | -24.1
4 | N#Cc1c(NC(=O)c2ccc([N+](=O)[O-])o2)sc2c1CCC2 | -50.2
